Our source for the binding signal values is publication PMC7862700.

The entries are a selection whose mix differs from that of the whole data set. At the low end of the ranking the order means little.

Assay in all cases: DAPPL (digital affinity profiling via proximity ligation, sequencing)
Common to all, as to settings: 10 mM Tris-HCl pH 7.5, 50 mM NaCl, 1 mM DTT, 4% glycerol, room temperature, 30 min; GST-TFs on glutathione beads, 16-mer random dsDNA library, 0.1% …; high values mean tight binding; double strand, one strand shown; scale: fold enrichment (6-mer frequency, TF over GST control)

One assay concerns the target T1, ELK1 (UniProt P19419).
T1 sequence: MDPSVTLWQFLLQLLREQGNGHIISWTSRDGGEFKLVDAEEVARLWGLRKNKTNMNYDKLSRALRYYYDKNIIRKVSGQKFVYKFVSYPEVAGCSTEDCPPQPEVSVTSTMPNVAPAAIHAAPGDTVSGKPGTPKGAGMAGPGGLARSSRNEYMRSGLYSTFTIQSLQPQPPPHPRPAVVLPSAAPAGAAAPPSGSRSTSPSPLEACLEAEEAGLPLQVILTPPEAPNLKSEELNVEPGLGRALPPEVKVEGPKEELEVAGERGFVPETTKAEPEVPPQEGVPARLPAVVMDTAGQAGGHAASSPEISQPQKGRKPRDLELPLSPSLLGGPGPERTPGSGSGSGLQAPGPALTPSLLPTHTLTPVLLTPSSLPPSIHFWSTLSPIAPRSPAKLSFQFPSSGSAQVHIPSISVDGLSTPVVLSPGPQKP

For another assay, the target named is T2, ELK3 (UniProt P41970).
T2 sequence: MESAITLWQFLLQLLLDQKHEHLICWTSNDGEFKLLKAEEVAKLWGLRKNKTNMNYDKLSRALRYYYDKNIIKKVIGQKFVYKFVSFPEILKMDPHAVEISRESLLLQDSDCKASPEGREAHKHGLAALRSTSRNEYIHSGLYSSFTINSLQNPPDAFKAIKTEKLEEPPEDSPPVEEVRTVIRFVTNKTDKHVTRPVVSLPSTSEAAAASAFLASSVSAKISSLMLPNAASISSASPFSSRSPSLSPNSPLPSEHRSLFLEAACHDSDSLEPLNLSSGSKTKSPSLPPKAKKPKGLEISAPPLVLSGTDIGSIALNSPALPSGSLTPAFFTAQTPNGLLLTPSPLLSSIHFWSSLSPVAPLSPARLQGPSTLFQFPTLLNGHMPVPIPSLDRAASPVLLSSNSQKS

The target in the next assay is T3, SPIC (UniProt Q8N5J4).
T3 sequence: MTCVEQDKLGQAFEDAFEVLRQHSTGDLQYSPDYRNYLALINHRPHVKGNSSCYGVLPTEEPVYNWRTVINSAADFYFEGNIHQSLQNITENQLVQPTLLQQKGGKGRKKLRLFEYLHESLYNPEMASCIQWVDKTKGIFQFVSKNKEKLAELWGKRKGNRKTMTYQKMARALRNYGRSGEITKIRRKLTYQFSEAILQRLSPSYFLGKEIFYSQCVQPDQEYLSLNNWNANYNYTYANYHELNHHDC

The next assay addresses T4, ETS2 (UniProt P15036).
T4 sequence: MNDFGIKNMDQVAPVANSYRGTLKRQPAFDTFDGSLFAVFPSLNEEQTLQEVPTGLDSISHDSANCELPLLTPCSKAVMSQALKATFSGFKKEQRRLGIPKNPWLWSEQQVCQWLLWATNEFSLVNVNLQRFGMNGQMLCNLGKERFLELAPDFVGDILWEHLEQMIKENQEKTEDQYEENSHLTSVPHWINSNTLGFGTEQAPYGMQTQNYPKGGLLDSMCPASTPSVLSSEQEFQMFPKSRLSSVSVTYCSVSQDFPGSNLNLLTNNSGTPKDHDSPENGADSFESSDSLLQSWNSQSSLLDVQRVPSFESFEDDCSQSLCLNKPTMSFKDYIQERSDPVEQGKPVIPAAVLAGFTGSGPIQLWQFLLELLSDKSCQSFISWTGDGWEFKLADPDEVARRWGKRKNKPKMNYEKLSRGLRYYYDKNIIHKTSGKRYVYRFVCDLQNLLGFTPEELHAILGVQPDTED

Another assay has as its target T5, ETV3 (UniProt P41162-2).
T5 sequence: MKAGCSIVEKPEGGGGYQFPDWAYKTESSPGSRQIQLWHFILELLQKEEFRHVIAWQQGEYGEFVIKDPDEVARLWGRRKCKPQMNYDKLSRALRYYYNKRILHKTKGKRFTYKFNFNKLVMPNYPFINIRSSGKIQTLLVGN

Regarding GAGACT, the binding signal in the assay with ELK1 was 0.399; with ELK3, 0.469; in the assay with SPIC it was 0.447; with ETS2, 0.417; with ETV3, 0.431.

On to AAAGAG, for which the binding signal with ELK1 came out at 0.925; with ELK3, 0.99; with SPIC, 0.802; with ETS2 it was 0.967; with ETV3 it was 0.918.

Consider AGACCG, for which the binding signal in the assay with ELK1 came out at 0.48; with ELK3, 0.505; with SPIC, 0.478; with ETS2, 0.448; with ETV3 it was 0.445.

As to GGGTGC, the binding signal turned out to be 0.899 with ELK1; 0.756 in the assay with ELK3; 0.584 with SPIC; 0.806 with ETS2; 0.778 with ETV3.

Regarding CAGGTT, the binding signal worked out at 0.719 with ELK1; 0.737 in the assay with ELK3; 0.708 with SPIC; 0.698 in the assay with ETS2; 0.722 with ETV3.

GAGTGG: the binding signal amounted to 0.563 in the assay with ELK1; 0.56 in the assay with ELK3; 0.465 with SPIC; 0.626 with ETS2; 0.571 with ETV3.

As for GCTCGG, the binding signal was 0.77 in the assay with ELK1; 0.736 with ELK3; 0.817 with SPIC; 0.708 with ETS2; 0.782 with ETV3.

Regarding CAGTTG, the binding signal with ELK1 turned out to be 0.484; with ELK3, 0.474; with SPIC, 0.52; with ETS2, 0.447; in the assay with ETV3 it was 0.491.

Consider AGGAGT, for which the binding signal stood at 0.354 in the assay with ELK1; 0.422 in the assay with ELK3; 0.352 in the assay with SPIC; 0.374 with ETS2; 0.363 with ETV3.

For the sequence CCGGGC, the binding signal came to 0.858 with ELK1; 0.806 with ELK3; 0.767 with SPIC; 0.869 with ETS2; 0.885 with ETV3.

Turning to GGGTGA, the binding signal with ELK1 was determined as 0.606; with ELK3 it was 0.613; in the assay with SPIC, 0.677; in the assay with ETS2, 0.615; with ETV3, 0.641.

Take CACAGA: the binding signal amounted to 0.848 with ELK1; 0.772 in the assay with ELK3; 0.856 with SPIC; 0.863 with ETS2; 0.839 with ETV3.

Take GGCGGC: the binding signal with ELK1 amounted to 0.594; with ELK3, 0.574; with SPIC it was 0.514; with ETS2, 0.556; with ETV3, 0.59.

As for AGCTGG, the binding signal was 0.999 with ELK1; 0.822 with ELK3; 0.968 with SPIC; 0.908 in the assay with ETS2; 0.898 with ETV3.

On to GTGGCG, for which the binding signal with ELK1 amounted to 0.752; with ELK3, 0.676; with SPIC, 0.692; with ETS2, 0.808; with ETV3, 0.798.

For the sequence ATCAGT, the binding signal with ELK1 worked out at 0.871; with ELK3, 0.949; with SPIC, 0.852; with ETS2, 0.891; with ETV3, 0.85.

In the case of GAAGAC, the binding signal was determined as 0.835 with ELK1; 0.915 with ELK3; 0.81 with SPIC; 0.903 with ETS2; 0.913 in the assay with ETV3.

Take TGGAGC: the binding signal in the assay with ELK1 was 0.667; in the assay with ELK3, 0.593; with SPIC, 0.649; in the assay with ETS2, 0.567; with ETV3, 0.592.

As to CGGGAG, the binding signal worked out at 0.202 in the assay with ELK1; 0.225 in the assay with ELK3; 0.186 in the assay with SPIC; 0.206 with ETS2; 0.216 with ETV3.

Turning to TCGGAA, the binding signal with ELK1 turned out to be 0.56; with ELK3, 0.588; with SPIC it was 0.528; with ETS2, 0.57; with ETV3 it was 0.597.

With AGGGTG, the binding signal with ELK1 stood at 0.747; in the assay with ELK3 it was 0.708; in the assay with SPIC, 0.791; with ETS2, 0.74; with ETV3, 0.756.

In the case of AGGAGC, the binding signal is 0.401 in the assay with ELK1; 0.387 with ELK3; 0.416 with SPIC; 0.384 with ETS2; 0.367 with ETV3.

In the case of GAGATA, the binding signal with ELK1 stood at 0.645; with ELK3, 0.627; in the assay with SPIC it was 0.651; with ETS2, 0.634; with ETV3, 0.673.

As for CGCATA, the binding signal is 0.693 with ELK1; 0.748 in the assay with ELK3; 0.681 with SPIC; 0.711 with ETS2; 0.697 with ETV3.

As to GTGAGC, the binding signal with ELK1 was determined as 0.432; with ELK3, 0.366; in the assay with SPIC, 0.404; with ETS2, 0.384; with ETV3, 0.394.

For CAGACC, the binding signal in the assay with ELK1 is 0.811; with ELK3, 0.791; in the assay with SPIC, 0.788; in the assay with ETS2, 0.765; in the assay with ETV3, 0.803.

GTGGGC: the binding signal with ELK1 is 0.703; in the assay with ELK3 it was 0.79; with SPIC, 0.812; with ETS2, 0.797; in the assay with ETV3 it was 0.751.
